Reference: PubChem BioAssay AID504834 (National Center for Advancing Translational Sciences (NCATS), 2011)
Among all 320,000 compounds or so, about 22,000 (6.9%) were called active. Inconclusive results, whose numbers are uncertain, are shown with a selection of clear calls. The call rests on the fitted dose curve; in most records, active means well fitted inhibition curve with a large enough effect; inconclusive means small, poorly fitted or top-dose-only effect, or another doubt; inactive means no such curve, though single readings can be large or run the other way. Potencies of inconclusive entries are doubtful fits and often do not repeat.

test: Primary qHTS for delayed death inhibitors of the malarial parasite plastid, 96 hour incubation; details: P. falciparum luciferase reporter growth; series mostly up to 28.7 µM; activity change, negative = inhibition: at the top concentration
Outline: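 Parasite growth measured via integrated firefly luciferase reporter in P. falciparum. Infected erythrocytes at 2% hematocrit, 0.05% parasitemia final were treated 96 hours at 37 C under 5% CO2, and luminescence was read.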
On the % scale 0 is the no-effect control and ±100 the full control effect; potency means the concentration at half of the fitted maximal effect.

| SMILES | activity change, negative = inhibition | Potency |
| --- | --- | --- |
| COC(=O)/C(C#N)=C/c1ccc(C)o1 | inactive: 7.51% |  |
| Cc1cc(/C=N/NC(=O)C(=O)N2CCCC2)c(C)n1-c1cccc(Br)c1 | inactive: 75.9% |  |
| CC(=O)Oc1ccc(C2C3=C(CC(C)(C)CC3=O)Nc3cc4c(cc32)OCCO4)cc1 (stereo not drawn) |  | inconclusive: 18.5 µM [inhibitor, single point] |
| COc1ccc(-c2nnc(SCC(=O)NNC(=O)Cc3ccccc3)n2C)cc1OC |  | inconclusive: 18.5 µM [inhibitor, single point] |
| O=C(CSc1ccc(Br)cc1)N1CCOCC1 | inactive: 36.2% |  |
| CCCC12CN3CCN(CC(C3)/C1=N\NC(=O)Nc1ccccc1)C2 |  | inconclusive: 0.329 µM [inhibitor, full curve, poor fit] |
| Cc1ccc(C)c2[nH]c(=O)c(CN(CC3CCCO3)S(=O)(=O)c3ccc4c(c3)OCCO4)cc12 (stereo not drawn) |  | inconclusive: 14.7 µM [inhibitor, single point] |
| COCC(C)n1c(=O)sc2ccccc2c1=O (stereo not drawn) | inactive: 10.3% |  |
| Cc1nc2c(-c3ccccc3)c(C)nn2c(C)c1CCC(=O)N1CCC2(CC1)OCCO2 |  | inconclusive: 11.7 µM [inhibitor, single point] |
| C#CCSc1nnc(-c2ccccc2)c(=O)[nH]1 |  | inconclusive: 1.04 µM [inhibitor, full curve, poor fit] |
| Cc1ccc(-n2nnnc2CNC(=O)c2ccc([N+](=O)[O-])o2)cc1C |  | inconclusive: 10.4 µM [inhibitor, single point] |
| CCN(CC(=O)Nc1c(F)cccc1F)C(=O)c1ccc(C)c(S(=O)(=O)N2CCCCC2)c1 |  | inconclusive: 8.28 µM [inhibitor, partial curve] |
| CC(Cc1ccsc1)NC(=O)CCc1nnc(COc2ccccc2)o1 (stereo not drawn) | inactive: 28.5% |  |
| Cc1ccc(NC(=O)CN(C)C(=O)c2ccc(Cl)nc2)cc1 | inactive: 27.3% |  |
| COC(=O)COc1coc(CN2CCN(c3cccc(Cl)c3)CC2)cc1=O |  | inconclusive: 11.7 µM [inhibitor, single point] |
| CN(C)S(=O)(=O)c1ccc(Cl)c(NC(=O)CSc2nc3c(cc2C#N)C(=O)CC(C)(C)C3)c1 |  | inconclusive: 18.5 µM [inhibitor, single point] |
| COc1ccc(C2/C(=C(/O)c3ccc(C)cc3)C(=O)C(=O)N2c2ccccn2)cc1 (stereo not drawn) | inactive: 9.24% |  |
| COCCSc1ccccc1C(=O)Nc1nnc(COC)s1 |  | inconclusive: 2.08 µM [inhibitor, partial curve, poor fit] |
| N#CC(CO)(Cc1ccc(OC(F)F)cc1)c1nc2ccccc2[nH]1 (stereo not drawn) |  | inconclusive: 10.4 µM [inhibitor, single point] |
| COc1cc(/C=C2\SC(N)=NC2=O)ccc1OCC(=O)Nc1ccc(C)cc1 |  | inconclusive: 11.7 µM [inhibitor, single point] |
| Cc1nc2cc(C)c(C)cc2s1 |  | inconclusive: 0.0828 µM [inhibitor, full curve, poor fit] |
| COc1ccc(N(C(=O)c2cccnc2)S(=O)(=O)c2cccc([N+](=O)[O-])c2)cc1 |  | inconclusive: 18.5 µM [inhibitor, partial curve, poor fit] |

| SMILES | activity change, negative = inhibition | Potency |
| --- | --- | --- |
| CC(C)(C)NC(=O)CN(C(=O)CNC(=O)c1cccs1)c1ccc2c(c1)OCCO2 |  | inconclusive: 11.7 µM [inhibitor, single point] |
| O=[N+]([O-])c1ccc(OCCN2CCNCC2)cc1 |  | inconclusive: 18.5 µM [inhibitor, single point] |
| CN1CCc2c(sc(N)c2C(N)=O)C1 | inactive: 29.1% |  |
| COc1ccccc1N(CC(=O)NCc1ccccc1)C(=O)CCC(=O)Nc1cc(C)ccn1 |  | inconclusive: 4.65 µM [inhibitor, partial curve] |
| Cc1nn(-c2ccccc2)nc1-c1nnc(-c2ccc(C(F)(F)F)cc2)o1 |  | inconclusive: 0.738 µM [inhibitor, full curve] |
| Cc1nc(-c2ccccc2)sc1C1(C)CC(c2ccc(C#N)cc2)=NO1 (stereo not drawn) | inactive: 19.6% |  |
| COc1ccc(Cl)cc1NC(=O)CN(C1CCCCC1)S(C)(=O)=O |  | inconclusive: 0.0738 µM [inhibitor, full curve, poor fit] |
| COc1ccc(/C=N/NC(=O)CNC(=O)c2ccncc2)cc1OC |  | inconclusive: 10.4 µM [inhibitor, single point] |
| COc1ccccc1C(=O)C1CCCN(Cc2cccc(OCCO)c2)C1 (stereo not drawn) | inactive: -8.82% |  |
| O=C(CSc1nc2c(sc3ccccc32)c(=O)n1CCCN1CCOCC1)NCC1CCCO1 (stereo not drawn) |  | inconclusive: 2.33 µM [inhibitor, full curve, poor fit] |
| COCCn1c(CN2CC(C)CC(C)C2)nc2c1c(=O)n(C)c(=O)n2C (stereo not drawn) | inactive: -13.3% |  |
| Cc1nnc(SCC(=O)c2cc(C)n(-c3c(C)n(C)n(-c4ccccc4)c3=O)c2C)s1 | inactive: -4.82% |  |
| CCOc1ccc(NC(=O)C[n+]2ccc(N(C)C)cc2)cc1 |  | inconclusive: 16.5 µM [inhibitor, single point] |
| Cc1c(NC(=O)c2cnn3cccnc23)c(=O)n(-c2ccccc2)n1C |  | inconclusive: 0.37 µM [inhibitor, full curve, poor fit] |
| Cn1c(Cn2c(=O)sc3ccccc32)nnc1SCc1ccc(F)cc1 |  | inconclusive: 11.7 µM [inhibitor, single point] |
| CCN(CC)S(=O)(=O)c1ccc(C(=O)Nc2nnc(-c3ccco3)o2)cc1 |  | inconclusive: 10.4 µM [inhibitor, partial curve, poor fit] |
| CCOc1ccc(NC(=O)c2ccccc2NC(=O)CN(C)CC(=O)Nc2ccc(C)cc2)cc1 |  | inconclusive: 13.1 µM [inhibitor, single point] |
| COc1ccc(OC)c(NC(=O)C2CCN(Cc3cnn(-c4ccccc4)c3-n3cccc3)CC2)c1 |  | inconclusive: 18.5 µM [inhibitor, single point] |
| CC1CC2=C(C(=O)O1)C(C)Nc1ccccc1N2 (stereo not drawn) |  | inconclusive: 5.22 µM [inhibitor, partial curve] |
| COc1ccc([C@H]2CC(=O)C=C(c3cc(Cl)ccc3C)C2)cc1 |  | inconclusive: 16.5 µM [inhibitor, single point] |
| NC(=O)CC(NC(=O)Cc1ccc(Br)cc1)c1ccc(N2CCN(c3ccccc3)CC2)c([N+](=O)[O-])c1 (stereo not drawn) |  | inconclusive: 18.5 µM [inhibitor, single point] |

Pulled by structure from the entries so far:

| SMILES | activity change, negative = inhibition | Potency |
| --- | --- | --- |
| CN1CCc2c(sc(N)c2C(N)=O)C1 | inactive: 29.1% |  |
| Cc1nn(-c2ccccc2)nc1-c1nnc(-c2ccc(C(F)(F)F)cc2)o1 |  | inconclusive: 0.738 µM [inhibitor, full curve] |
| Cc1nc(-c2ccccc2)sc1C1(C)CC(c2ccc(C#N)cc2)=NO1 (stereo not drawn) | inactive: 19.6% |  |
